These are yes or no findings as the source states them, for the method shown. Binding seen in cells or lysates may run through a third protein. A yes stands for co-enrichment or nearness to the bait. Other partners may have been found.

Chains of the proteins cited; added tags and fusions are not shown. Residues count along the entry.
UniProt P04629, residues 33-796: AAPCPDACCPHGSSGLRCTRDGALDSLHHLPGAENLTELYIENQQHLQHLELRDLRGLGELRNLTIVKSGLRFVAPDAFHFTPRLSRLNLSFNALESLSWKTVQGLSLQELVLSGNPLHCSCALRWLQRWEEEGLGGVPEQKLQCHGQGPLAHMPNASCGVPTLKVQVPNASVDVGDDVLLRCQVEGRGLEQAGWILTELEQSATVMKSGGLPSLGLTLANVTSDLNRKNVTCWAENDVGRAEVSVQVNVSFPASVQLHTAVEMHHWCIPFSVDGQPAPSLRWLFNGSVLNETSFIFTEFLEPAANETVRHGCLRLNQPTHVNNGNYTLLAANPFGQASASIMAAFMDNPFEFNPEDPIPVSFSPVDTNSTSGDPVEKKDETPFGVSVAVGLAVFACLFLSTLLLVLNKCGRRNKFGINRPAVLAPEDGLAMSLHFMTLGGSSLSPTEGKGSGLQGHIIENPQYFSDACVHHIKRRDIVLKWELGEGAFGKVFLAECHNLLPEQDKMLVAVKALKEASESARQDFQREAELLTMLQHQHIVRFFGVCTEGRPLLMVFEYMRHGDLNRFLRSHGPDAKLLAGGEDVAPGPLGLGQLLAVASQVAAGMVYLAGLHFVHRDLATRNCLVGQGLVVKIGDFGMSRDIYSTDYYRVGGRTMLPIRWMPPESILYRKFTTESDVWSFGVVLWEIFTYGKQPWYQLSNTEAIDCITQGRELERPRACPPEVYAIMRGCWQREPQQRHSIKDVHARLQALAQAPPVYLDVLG
UniProt P12814: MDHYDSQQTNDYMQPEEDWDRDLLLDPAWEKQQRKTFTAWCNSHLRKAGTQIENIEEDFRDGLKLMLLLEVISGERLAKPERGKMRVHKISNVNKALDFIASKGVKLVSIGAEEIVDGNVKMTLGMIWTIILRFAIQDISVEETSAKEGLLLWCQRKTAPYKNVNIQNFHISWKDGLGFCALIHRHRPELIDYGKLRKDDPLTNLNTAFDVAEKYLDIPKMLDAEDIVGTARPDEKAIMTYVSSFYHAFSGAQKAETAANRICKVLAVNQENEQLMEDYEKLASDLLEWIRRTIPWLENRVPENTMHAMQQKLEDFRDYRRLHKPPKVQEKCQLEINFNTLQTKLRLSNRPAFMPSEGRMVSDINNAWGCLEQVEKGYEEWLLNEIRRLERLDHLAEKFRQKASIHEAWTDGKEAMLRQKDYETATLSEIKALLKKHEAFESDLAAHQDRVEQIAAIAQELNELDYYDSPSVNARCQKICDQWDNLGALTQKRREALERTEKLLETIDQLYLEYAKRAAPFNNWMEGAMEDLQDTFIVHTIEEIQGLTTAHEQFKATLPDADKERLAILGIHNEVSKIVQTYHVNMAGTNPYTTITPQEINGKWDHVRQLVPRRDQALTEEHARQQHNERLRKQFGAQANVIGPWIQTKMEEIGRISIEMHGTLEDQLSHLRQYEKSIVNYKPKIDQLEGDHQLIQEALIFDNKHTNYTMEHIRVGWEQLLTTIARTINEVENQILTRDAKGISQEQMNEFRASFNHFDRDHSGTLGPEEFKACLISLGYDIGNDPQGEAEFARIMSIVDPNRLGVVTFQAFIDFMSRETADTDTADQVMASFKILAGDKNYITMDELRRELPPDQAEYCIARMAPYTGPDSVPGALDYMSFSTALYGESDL
UniProt P26038: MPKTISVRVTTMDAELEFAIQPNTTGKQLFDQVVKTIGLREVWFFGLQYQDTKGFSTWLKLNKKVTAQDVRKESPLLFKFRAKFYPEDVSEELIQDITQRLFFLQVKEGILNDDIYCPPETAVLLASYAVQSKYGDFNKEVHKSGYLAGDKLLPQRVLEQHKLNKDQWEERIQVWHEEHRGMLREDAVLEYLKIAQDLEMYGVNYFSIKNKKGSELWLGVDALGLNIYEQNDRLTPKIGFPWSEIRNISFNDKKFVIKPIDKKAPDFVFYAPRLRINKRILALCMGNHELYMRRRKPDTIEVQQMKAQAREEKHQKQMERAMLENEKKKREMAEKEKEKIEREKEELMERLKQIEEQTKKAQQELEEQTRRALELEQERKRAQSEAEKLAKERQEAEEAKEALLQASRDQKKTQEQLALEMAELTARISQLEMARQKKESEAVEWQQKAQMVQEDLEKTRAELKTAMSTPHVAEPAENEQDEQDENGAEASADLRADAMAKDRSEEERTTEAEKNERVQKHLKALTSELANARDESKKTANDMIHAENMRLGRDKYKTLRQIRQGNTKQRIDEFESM
UniProt Q9UHB6: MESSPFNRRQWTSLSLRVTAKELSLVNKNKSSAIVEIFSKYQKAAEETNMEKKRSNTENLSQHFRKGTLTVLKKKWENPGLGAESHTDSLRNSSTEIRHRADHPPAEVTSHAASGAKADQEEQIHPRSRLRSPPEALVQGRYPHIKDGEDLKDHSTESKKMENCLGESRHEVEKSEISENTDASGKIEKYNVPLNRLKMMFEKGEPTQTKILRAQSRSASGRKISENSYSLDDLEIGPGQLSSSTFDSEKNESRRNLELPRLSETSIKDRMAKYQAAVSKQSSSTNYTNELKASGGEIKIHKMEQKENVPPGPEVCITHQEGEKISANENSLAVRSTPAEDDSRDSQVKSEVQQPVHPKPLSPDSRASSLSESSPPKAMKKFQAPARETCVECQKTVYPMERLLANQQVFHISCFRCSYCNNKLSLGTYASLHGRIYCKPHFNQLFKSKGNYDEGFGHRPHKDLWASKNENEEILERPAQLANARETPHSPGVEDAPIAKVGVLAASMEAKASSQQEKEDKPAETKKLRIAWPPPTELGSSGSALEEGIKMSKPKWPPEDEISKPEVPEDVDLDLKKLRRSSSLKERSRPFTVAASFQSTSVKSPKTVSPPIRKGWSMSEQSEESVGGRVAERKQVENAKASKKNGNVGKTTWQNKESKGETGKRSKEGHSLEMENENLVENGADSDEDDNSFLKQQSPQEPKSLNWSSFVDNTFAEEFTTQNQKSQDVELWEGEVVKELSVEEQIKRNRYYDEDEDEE
UniProt P15311: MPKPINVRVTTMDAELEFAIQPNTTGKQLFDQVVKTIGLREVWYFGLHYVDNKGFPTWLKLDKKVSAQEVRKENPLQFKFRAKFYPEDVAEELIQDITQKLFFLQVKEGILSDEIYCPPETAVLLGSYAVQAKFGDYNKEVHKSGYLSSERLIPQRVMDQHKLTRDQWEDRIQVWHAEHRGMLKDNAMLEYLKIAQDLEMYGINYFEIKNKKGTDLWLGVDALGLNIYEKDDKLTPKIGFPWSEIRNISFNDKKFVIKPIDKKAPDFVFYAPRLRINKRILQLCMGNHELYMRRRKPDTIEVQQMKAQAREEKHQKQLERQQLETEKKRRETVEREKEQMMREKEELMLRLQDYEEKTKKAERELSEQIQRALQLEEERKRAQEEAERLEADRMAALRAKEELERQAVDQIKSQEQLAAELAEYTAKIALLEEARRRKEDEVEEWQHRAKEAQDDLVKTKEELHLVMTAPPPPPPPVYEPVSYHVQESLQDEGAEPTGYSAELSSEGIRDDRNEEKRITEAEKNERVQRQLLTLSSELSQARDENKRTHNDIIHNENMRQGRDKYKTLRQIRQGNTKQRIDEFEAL
UniProt P16070, residues 21-742: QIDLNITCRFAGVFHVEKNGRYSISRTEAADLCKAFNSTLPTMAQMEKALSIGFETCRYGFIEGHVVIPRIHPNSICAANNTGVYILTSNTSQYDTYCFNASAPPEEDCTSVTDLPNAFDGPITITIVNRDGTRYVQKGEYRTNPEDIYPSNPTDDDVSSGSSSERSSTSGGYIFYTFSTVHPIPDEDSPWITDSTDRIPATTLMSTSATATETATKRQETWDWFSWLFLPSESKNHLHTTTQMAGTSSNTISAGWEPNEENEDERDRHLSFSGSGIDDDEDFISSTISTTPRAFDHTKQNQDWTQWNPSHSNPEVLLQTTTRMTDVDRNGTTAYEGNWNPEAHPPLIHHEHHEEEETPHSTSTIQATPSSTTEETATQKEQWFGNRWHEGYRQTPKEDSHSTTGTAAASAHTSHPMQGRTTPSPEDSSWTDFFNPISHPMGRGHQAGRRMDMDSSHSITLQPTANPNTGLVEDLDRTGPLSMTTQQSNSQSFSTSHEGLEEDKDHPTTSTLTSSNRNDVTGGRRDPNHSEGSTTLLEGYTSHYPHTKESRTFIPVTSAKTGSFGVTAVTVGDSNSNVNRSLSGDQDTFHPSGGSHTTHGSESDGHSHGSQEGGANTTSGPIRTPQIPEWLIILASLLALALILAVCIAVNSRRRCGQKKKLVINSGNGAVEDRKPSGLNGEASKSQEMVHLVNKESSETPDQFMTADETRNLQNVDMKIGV
UniProt Q05397: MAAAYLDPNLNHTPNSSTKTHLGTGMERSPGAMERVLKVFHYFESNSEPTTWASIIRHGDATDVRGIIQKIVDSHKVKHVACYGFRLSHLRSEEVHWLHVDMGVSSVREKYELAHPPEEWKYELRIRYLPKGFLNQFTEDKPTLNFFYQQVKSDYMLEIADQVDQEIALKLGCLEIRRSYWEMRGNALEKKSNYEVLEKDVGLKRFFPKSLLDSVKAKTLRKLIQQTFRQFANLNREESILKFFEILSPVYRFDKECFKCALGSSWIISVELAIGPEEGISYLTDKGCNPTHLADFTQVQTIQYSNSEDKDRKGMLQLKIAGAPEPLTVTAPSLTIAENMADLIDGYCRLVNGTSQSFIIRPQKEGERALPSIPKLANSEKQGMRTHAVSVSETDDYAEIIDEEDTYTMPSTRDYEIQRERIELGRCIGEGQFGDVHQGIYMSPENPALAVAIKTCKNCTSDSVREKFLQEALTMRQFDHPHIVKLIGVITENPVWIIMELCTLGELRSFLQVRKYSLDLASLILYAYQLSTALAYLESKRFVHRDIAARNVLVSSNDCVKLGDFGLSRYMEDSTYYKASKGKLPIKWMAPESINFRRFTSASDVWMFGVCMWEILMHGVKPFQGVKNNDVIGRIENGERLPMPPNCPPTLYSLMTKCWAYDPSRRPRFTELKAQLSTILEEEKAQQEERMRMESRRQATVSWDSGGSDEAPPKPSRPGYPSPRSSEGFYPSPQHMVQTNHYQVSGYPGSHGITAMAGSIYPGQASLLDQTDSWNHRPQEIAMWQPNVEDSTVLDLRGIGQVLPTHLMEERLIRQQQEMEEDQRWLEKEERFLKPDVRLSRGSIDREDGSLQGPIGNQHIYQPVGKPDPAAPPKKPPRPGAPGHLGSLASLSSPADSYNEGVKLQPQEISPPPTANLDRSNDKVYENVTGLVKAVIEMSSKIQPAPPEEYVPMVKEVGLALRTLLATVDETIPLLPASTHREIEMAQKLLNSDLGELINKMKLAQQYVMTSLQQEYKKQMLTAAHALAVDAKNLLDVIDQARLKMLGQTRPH

The target of the assay is HA-TrkA (UniProt P04629). The experiment in a line: affinity purification with mass spectrometry; anti-HA IP from lysates of HA-TrkA MDA-MB-231 cells treated with NGF (16 nM) for 30 min; eluates on SDS-PAGE, bands of increased intensity in NGF-treated cells excised, nanoLC-MS/MS.
On to “Alpha-actinin-1 (from UniProt P12814 1-892)”, for which the binding entry is recorded as “binds”. Regarding Moesin (from UniProt P26038 1-577), the binding result is on record as “binds”. Turning to “LIM domain and actin-binding protein 1 (from UniProt Q9UHB6 1-759)”, the binding result is “binds”. As for Ezrin (from UniProt P15311 1-586), the binding entry is given as “binds”. “CD44 antigen (from UniProt P16070 21-742) (receptor)”: the binding entry is reported as “binds”. As for “Focal adhesion kinase 1 (from UniProt Q05397 1-1052) (enzyme)”, the binding entry is “binds”.
